Results are given in words; binding and its absence hold for the method and conditions named. Binding seen in cells or lysates may run through a third protein. These calls come from enrichment with a bait or labelling near it, and not all partners need be listed.
B1: drebrin 1 (DBN1) (protein, UniProt Q9QXS6 1-706)
chain: MAGVSFSGHRLELLAAYEEVIREESAADWALYTYEDGSDDLKLAASGEGGLQELSGHFENQKVMYGFCSVKDSQAALPKYVLINWVGEDVPDARKCACASHVAKVAEFFQGVDVIVNASSVEDIDAGAIGQRLSNGLARLSSPVLHRLRLREDENAEPVGTTYQKTDAAVEMKRINREQFWEQAKKEEELRKEEERKKALDARLRFEQERMEQERQEQEERERRYREREQQIEEHRRKQQSLEAEEAKRRLKEQSIFGDQRDEEEESQMKKSESEVEEAAAIIAQRPDNPREFFRQQERVASASGGSCDAPAPAPFNHRPGRPYCPFIKASDSGPSSSSSSSSSPPRTPFPYITCHRTPNLSSSLPCSHLDSHRRMAPTPIPTRSPSDSSTASTPIAEQIERALDEVTSSQPPPPPPPPPPTQEAQETTPSLDEELSKEAKVTAAPEVWAGCAAEPPQAQEPPLLQSSPLEDSMCTESPEQAALAAPAEPAASVTSVADVHAADTIETTTATTDTTIANNVTPAAASLIDLWPGNGEEASTLQAEPRVPTPPSGAEASLAEVPLLNEAAQEPLPPVGEGCANLLNFDELPEPPATFCDPEEEVGETLAASQVLTMPSALEEVDQVLEQELEPEPHLLTNGETTQKEGTQASEGYFSQSQEEEFAQSEEPCAKVPPPVFYNKPPEIDITCWDADPVPEEEEGFEGGD
B2: brain acid soluble protein 1 (Basp1) (protein, UniProt Q91XV3 1-226)
chain: MGGKLSKKKKGYNVNDEKAKDKDKKAEGAGTEEEGTPKESEPQAAADATEVKESTEEKPKDAADGEAKAEEKEADKAAAAKEEAPKAEPEKSEGAAEEQPEPAPAPEQEAAAPGPAAGGEAPKAGEASAESTGAADGAAPEEGEAKKTEAPAAAGPEAKSDAAPAASDSKPSSAEPAPSSKETPAASEAPSSAAKAPAPAAPAAAEPQAEAPAAAASSEQSVAVKE

Protein sequences, listed by entry. Tags and fused reporters are not part of them.
UniProt Q2MHE5: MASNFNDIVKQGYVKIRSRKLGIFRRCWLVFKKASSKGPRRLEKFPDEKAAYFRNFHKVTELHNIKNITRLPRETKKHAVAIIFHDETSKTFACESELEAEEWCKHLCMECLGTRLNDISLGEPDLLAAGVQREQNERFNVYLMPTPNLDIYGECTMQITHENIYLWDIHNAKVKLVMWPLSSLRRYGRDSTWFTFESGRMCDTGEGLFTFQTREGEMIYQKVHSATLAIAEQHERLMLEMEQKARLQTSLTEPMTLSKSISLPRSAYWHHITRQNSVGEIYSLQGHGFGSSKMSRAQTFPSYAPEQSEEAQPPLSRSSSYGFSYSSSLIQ
UniProt P10637: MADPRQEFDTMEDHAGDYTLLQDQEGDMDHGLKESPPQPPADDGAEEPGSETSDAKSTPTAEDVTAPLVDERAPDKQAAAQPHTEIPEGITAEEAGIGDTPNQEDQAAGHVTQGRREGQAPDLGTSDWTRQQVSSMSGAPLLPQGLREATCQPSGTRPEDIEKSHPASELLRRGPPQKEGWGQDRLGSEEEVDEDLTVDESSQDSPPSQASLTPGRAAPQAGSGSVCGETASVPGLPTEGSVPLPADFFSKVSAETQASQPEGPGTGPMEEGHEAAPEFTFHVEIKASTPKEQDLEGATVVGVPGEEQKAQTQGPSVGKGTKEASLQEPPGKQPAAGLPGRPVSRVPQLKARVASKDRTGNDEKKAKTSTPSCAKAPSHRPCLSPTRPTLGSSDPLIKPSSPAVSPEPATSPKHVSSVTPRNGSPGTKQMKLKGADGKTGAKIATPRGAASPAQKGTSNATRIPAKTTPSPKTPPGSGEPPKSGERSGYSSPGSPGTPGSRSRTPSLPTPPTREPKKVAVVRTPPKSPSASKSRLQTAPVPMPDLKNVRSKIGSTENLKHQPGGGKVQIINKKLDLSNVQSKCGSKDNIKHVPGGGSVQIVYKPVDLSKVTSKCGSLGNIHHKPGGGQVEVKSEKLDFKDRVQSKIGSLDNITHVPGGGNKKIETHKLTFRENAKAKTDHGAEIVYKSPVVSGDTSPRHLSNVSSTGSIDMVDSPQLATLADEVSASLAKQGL
UniProt P14873: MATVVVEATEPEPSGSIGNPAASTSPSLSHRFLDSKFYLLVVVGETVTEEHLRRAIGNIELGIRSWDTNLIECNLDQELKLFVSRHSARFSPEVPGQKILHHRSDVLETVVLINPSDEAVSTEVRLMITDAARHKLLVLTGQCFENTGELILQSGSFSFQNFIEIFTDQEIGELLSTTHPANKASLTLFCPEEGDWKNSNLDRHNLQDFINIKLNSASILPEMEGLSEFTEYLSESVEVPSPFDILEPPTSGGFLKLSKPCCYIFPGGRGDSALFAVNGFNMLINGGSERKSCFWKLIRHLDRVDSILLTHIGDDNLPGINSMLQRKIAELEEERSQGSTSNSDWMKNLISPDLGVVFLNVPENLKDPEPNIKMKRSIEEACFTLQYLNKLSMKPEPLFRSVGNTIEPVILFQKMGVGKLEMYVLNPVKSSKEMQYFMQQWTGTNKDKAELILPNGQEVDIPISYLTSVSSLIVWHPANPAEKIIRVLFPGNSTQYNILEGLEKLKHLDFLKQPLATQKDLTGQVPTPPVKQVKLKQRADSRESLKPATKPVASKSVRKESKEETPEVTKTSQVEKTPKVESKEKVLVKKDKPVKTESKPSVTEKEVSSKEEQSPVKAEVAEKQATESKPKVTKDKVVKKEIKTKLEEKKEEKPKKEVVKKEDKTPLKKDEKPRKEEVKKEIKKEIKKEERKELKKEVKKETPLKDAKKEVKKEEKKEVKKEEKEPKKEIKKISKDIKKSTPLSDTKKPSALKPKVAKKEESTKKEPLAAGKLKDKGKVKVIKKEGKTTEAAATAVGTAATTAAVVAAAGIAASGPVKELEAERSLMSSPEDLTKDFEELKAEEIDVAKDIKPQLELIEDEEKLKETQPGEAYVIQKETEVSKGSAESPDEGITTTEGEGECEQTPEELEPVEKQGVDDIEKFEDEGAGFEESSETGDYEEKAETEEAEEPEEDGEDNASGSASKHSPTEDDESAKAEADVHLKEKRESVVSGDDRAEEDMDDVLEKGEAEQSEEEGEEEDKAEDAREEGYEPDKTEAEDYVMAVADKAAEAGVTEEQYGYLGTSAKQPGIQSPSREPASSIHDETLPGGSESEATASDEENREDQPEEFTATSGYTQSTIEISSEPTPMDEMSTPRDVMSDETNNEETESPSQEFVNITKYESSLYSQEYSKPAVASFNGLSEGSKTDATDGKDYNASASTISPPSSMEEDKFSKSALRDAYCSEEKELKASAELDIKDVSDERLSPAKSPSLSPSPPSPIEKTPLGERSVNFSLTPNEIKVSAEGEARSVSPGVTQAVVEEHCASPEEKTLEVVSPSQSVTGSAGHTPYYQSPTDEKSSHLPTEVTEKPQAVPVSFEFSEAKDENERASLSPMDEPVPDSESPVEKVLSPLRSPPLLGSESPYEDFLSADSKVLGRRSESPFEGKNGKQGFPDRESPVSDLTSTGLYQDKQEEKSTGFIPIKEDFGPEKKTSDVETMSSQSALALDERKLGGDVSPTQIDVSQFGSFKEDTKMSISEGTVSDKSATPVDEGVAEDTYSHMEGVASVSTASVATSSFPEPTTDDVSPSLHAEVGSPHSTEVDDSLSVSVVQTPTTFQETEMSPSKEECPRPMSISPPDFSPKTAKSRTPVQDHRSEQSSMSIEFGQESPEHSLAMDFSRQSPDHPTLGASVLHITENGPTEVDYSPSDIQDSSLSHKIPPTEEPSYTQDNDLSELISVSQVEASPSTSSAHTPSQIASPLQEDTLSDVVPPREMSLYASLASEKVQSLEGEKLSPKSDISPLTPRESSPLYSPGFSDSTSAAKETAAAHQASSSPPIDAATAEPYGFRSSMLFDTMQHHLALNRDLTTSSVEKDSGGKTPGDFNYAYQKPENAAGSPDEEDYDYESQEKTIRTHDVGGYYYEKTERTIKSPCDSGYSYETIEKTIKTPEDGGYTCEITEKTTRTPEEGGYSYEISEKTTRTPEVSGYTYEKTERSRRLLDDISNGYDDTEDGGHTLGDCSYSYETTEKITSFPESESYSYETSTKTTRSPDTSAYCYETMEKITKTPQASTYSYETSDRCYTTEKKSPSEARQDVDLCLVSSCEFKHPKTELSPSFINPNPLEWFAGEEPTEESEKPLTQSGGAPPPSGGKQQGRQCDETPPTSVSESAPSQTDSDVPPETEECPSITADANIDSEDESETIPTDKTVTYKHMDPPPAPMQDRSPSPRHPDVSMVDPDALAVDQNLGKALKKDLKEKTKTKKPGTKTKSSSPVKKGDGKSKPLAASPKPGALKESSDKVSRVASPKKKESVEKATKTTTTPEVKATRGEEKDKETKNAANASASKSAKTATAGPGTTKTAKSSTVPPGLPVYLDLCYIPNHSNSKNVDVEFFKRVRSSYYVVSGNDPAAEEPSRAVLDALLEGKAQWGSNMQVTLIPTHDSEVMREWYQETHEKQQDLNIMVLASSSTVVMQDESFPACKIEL

Biological target: GST-Full-length-DOK6 (UniProt Q2MHE5)
Test: affinity purification with mass spectrometry; GST-DOK6 held on glutathione Sepharose beads, incubated with E18.5 mouse forebrain lysate overnight at 4 °C; GST alone as negative control; SDS-PAGE, silver staining, mass spectrometry; only the target purified

Molecule | binding
microtubule-associated protein tau (MAPT) (from UniProt P10637 1-733) | binds
cytoplasmic dynein 1 heavy chain 1 (Dync1h1) (from UniProt Q9JHU4 1-4644) | binds
microtubule-associated protein 1B (MAP1B/MAP5) (from UniProt P14873 1-2464) | binds
B1 | binds
B2 | binds

From article PMC10864363
